The test has as its target T1, RASSF-1A protein (human (endogenous in SCC9)) (UniProt Q9NS23).
T1 sequence: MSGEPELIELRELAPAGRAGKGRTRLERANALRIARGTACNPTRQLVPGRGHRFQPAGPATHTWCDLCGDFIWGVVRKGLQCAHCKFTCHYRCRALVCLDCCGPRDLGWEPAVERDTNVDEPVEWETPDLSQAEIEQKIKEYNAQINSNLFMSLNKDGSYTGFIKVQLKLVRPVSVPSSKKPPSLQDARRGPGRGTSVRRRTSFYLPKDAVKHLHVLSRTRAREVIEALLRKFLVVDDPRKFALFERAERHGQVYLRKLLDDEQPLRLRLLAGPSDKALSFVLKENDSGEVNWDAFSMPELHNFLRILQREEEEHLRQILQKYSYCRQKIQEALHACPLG
The test can be described thus: co-IP; SCC9 whole-cell lysate; Protein A/G agarose with rabbit anti-RASSF-1A or rabbit anti-CyclinD1, normal rabbit IgG as control; analysed by western blot. A general note: In western blotting, separated proteins are transferred to a membrane and probed.

By UniProt entry, the sequences of proteins in these tests, tags left out.
UniProt P24385: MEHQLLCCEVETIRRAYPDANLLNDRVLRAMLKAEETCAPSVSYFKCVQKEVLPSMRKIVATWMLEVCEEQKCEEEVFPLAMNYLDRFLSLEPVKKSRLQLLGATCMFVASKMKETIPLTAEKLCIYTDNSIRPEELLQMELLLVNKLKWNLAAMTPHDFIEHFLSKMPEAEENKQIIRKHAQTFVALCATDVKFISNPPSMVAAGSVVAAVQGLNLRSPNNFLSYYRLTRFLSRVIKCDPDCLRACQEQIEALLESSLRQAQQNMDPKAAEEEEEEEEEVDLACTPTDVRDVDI

The values below come from paper PMC6693157.

Results are given in words; binding and its absence hold for the method and conditions named. Binding seen in cells or lysates may run through a third protein. Some entries that bind do so weakly or less than the wild type.

Turning to “CyclinD1 protein (from UniProt P24385 1-295)”, the binding result is reported as “binds”.
